# Experimental data published in patent US4238390A (Hoffmann-La Roche Inc., priority 1979, dated 1980).
# Experiment: peptide synthesis
# Conditions: coupling step, HCl salt
substance,measurement,value
Boc-Tyr-D-Thr-Gly-Phe-Δ^3 Pro-NH2,step yield,53.2%
